In all, about 6,900 compounds went through this assay and fewer than 10 were called active. The call rests on the fitted dose curve; in most records, active means well fitted curve in the direction sought with a large enough effect; inconclusive means small, poorly fitted or top-dose-only effect, or another doubt; inactive means no such curve, though single readings can be large or run the other way. This is one part of the list.
The compounds below were run against Metallo-beta-lactamase type 2 (Klebsiella pneumoniae) (UniProt C7C422) (assay: qHTS to identify inhibitors of the New Delhi Metallo-beta-lactamase (NDM): primary screen against the NCATS Gemini Collection). Settings: NDM-1 enzyme, meropenem hydrolysis, absorbance 300 nm; at 38.4 µM (top of the series) unless noted.
In short: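 Meropenem hydrolysis (50 uM final) by 2 nM NDM-1 read as 300 nm absorbance after 30 min, following >30 min compound–enzyme preincubation in HEPES pH 7.0 with 1 uM ZnSO4 and 0.01% Tween20.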
Further: % of control where 0% means no effect.

Sequences of proteins named here, by UniProt entry; tags and fusion partners are left off. A change or cut given only in a name is not applied to a line headed by its entry.
UniProt C7C422: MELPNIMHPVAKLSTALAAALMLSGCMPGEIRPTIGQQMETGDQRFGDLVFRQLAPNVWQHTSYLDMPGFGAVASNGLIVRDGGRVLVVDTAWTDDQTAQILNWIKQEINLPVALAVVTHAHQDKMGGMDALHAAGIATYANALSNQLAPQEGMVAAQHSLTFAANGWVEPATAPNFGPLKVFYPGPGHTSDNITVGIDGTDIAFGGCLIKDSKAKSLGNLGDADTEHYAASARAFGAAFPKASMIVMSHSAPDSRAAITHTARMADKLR

SMILES	activity % (negative = inhibition)
Cc1nc(CCNc2cc(C3CC(O)C3)nc(N)n2)nc2c1CCC2 (stereo not drawn)	inactive: -0.523%
CN1c2cc(C(=O)NC3CCCCCC3)ccc2C(=O)N2CCCC21 (stereo not drawn)	inactive: 0.477%
Cc1nc([C@@H]2CN(C(=O)CCc3c[nH]c4ccccc34)C[C@H]2C(N)=O)n[nH]1	inactive: 0.782%
O=C(NCC1CCCCCC1)C1CCN(Cc2ccccc2-c2cccnc2)CC1	inactive: 12%
c1ccc(CCN2CCNc3cc(NCc4cccnc4)ncc3C2)cc1	inactive: 35.2% [at 57.5 µM]
COC[C@H]1CCCN1c1nc(CCN)nc2sc(C)c(C)c12	inactive: 20.6%
CNC(=O)c1cccc(-c2ccccc2COc2ccc(CCOC)cc2)n1	inactive: 2.78%
Cn1ccnc1CN1C[C@@H](F)[C@@H](OCc2nc3ccccc3[nH]2)C1	inactive: 10.8% [at 57.5 µM]
CCC1(N2CCN(C(=O)Nc3cc(C)ccc3OC)CC2)CCN(C(=O)C(C)C)C1 (stereo not drawn)	inactive: 20.4%
Cc1ccccc1C(CC(=O)N1CCSCC1)c1ccccc1 (stereo not drawn)	inactive: 0.408%
C[S+](=O)([O-])c1ccc(-c2cnc3n[nH]c(-c4ccccc4)c3n2)cc1	inactive: 8.05% [at 57.5 µM]
COCCOCc1nc(C2CCCN2C(=O)Nc2ccc(F)cc2F)no1 (stereo not drawn)	inactive: -10%
O=C(NCc1ccc(Cl)cc1)c1cc2cccnn2n1	inactive: 11.1% [at 57.5 µM]
O=C(CN1CCCCC1)N1CCCC(N2CCN(Cc3ccc4c(c3)OCO4)CC2)C1 (stereo not drawn)	inactive: 3.65%
CSc1cccc(CN(C)Cc2cc3n(n2)CCNC3)c1	inactive: 0.138%
Cc1cc(C[C@@H]2COC[C@@H]2NC(=O)c2cccc(-n3nc(C)cc3C)c2)on1	inactive: 1.08%
CCC(C)NC(=O)Cn1nc2n(c1=O)CCCCC2 (stereo not drawn)	inactive: 0.148%
O=C(C1CC1)N1C[C@@H]2OCC(=O)N(Cc3ccc(F)cc3)[C@@H]2C1	inactive: 0.688% [at 57.5 µM]
CC(=O)N1CCCC(c2nc(-c3ccc4nc[nH]c4c3)no2)C1 (stereo not drawn)	inactive: 12.4%
CCS(=O)(=O)N1CCC(c2noc(COc3ccc(F)cc3)n2)C1 (stereo not drawn)	inactive: -1.52%
CCC(O)CNC(=O)c1cn2cc(-c3ccc(F)cc3)n(CC=C(C)C)c(=O)c2n1 (stereo not drawn)	inactive: -4.62%
COc1ccc(F)cc1-c1ccc(CN2CCC(N[S+](=O)([O-])c3cccs3)C2)cc1 (stereo not drawn)	inactive: -1.15%

By substructure: those above containing a thiophene ring, fused or not.
SMILES	activity % (negative = inhibition)
COC[C@H]1CCCN1c1nc(CCN)nc2sc(C)c(C)c12	inactive: 20.6%
COc1ccc(F)cc1-c1ccc(CN2CCC(N[S+](=O)([O-])c3cccs3)C2)cc1 (stereo not drawn)	inactive: -1.15%

Remaining list, next part.

SMILES	activity % (negative = inhibition)
O[C@@H]1C[C@@H](c2nc(Cc3ccc(F)cc3Cl)no2)N(Cc2ccco2)C1	inactive: 10.2% [at 57.5 µM]
Cn1ccc(C(=O)N2CCC3(CC2)CC(=O)N(C/C=C/c2ccccc2)C3)n1	inactive: 4.48%
CN1C(=O)CC[C@]2(C(=O)N3CCN(c4ccccc4)CC3)CCCC[C@@H]12	inactive: -0.104%
O=C(c1ccccc1)N1CCC2(CC(Cc3ccccc3)=NO2)C1 (stereo not drawn)	inactive: 9.1% [at 57.5 µM]
Cn1cccc1-c1noc(C2CCN(C(=O)CCn3cnc4ccccc43)C2)n1 (stereo not drawn)	inactive: 4.07%
Cc1cccc(OCC(=O)NCc2nnc3c(-c4nc(C)no4)cccn23)c1	inactive: 4.07%
CN(C)C(=O)C1=NOC2CN(C(=O)C3CC3)CC12 (stereo not drawn)	inactive: 2.65% [at 57.5 µM]
CC(C)Cn1c(CN(C)CCC2CCCCO2)cnc1S(=O)(=O)Cc1ccccc1 (stereo not drawn)	inactive: -0.11%
COc1ccc(CNCC2(CO)C[C@@H](O)[C@@H](O)C2)cc1 (stereo partly drawn)	inactive: -1.42% [at 77.1 µM]
COc1ccccc1Oc1ncccc1CNC(=O)Nc1cccc(C#N)c1	inactive: 0.348%
COc1ccccc1-c1[nH]nc2ncc(C(=O)N3CCN(Cc4ccccc4)CC3)nc12	inactive: 11.1% [at 57.5 µM]
O=C(NCC(F)(F)F)c1ccc2nnc(-c3cncc(Cl)c3)n2c1	inactive: 9.5%
COc1ccccc1CC(=O)N1CCC(n2nccc2NC(=O)c2ccccc2C)CC1	inactive: -2.18%
CCOC(=O)N1CCC2(CC1)N=C(CCC(C)C)NC2=O	inactive: 6.73%
CN(C(=O)CCS(=O)(=O)c1ccccc1)C1CCc2nn(C)c(=O)n2CC1 (stereo not drawn)	inactive: 3.34%
CCc1cc(NCC(c2ccc(C)o2)N2CCOCC2)n2nccc2n1 (stereo not drawn)	inactive: 0.529%
Cc1ccc(C2=NC3(CCN(C(=O)c4cnccn4)CC3)ON2)cc1	inactive: 59.8%
Cc1ccc([S+](=O)([O-])NC2CCN(Cc3ccc(-c4ccsc4)cc3)C2)cc1 (stereo not drawn)	inactive: 3.54%
O=C(c1cc(-c2ccccc2)nc2ccccc12)N1CCOCC(CO)C1 (stereo not drawn)	inactive: 9.55%
COC1C(=O)N(C2CCN(C(=O)C3CC3)CC2)C12CCOCC2 (stereo not drawn)	inactive: 11.7%
O=[S+]1([O-])NC2(CCN(Cc3ccncc3)CC2)CNc2ccccc21	inactive: 0.184%

Source: PubChem BioAssay AID1794845 (National Center for Advancing Translational Sciences (NCATS), 2023)
